± gives the standard deviation. Only a part is listed here, and it is no random draw. The uncertainty is large for many entries. Some of the results follow.
Tests used:
[1] = tested on: MILI (PIWIL2) piRISC loaded with L1MC piRNA (26 nt); assay: pre-steady-state target cleavage rate (min^-1); higher = faster piRNA-guided slicing of the target; settings: guide: L1MC piRNA 5'p-UAACUAAAUACUAUGCAAGCUGUAGG
Method in brief: (§1)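 A transcribed, DNA-blocked target RNA library […] was incubated at 33 °C for 0–8 or 0–960 min with 1 nM active affinity-purified piRISC carrying one synthetic guide, in HEPES–potassium acetate buffer with or without 500 nM GTSF1 partner protein. Uncleaved targets were then sequenced and normalised to depth and to weakly complementary targets. Data from three trials were pooled, with k3 capped at 0.0001 min^-1, and a burst-and-steady-state fit yielded the pre-steady-state cleavage rate.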

[2] = tested on: MIWI (PIWIL1) piRISC loaded with L1MC piRNA (30 nt); assay: as above; settings: guide: L1MC piRNA 5'p-UAACUAAAUACUAUGCAAGCUGUAGGUCCU
Method in brief: as §1

[3] = tested on: EfPiwi piRISC loaded with L1MC piRNA (26 nt); assay: pre-steady-state target cleavage rate (min^-1); guide: L1MC piRNA 5'p-UAACUAAAUACUAUGCAAGCUGUAGG; MIWI and MILI are mouse PIWI proteins and EfPiwi is from a freshwater sponge; tags in brackets are library labels; higher = faster piRNA-guided slicing of the target
Method in brief: as §1

[4] = auxiliary factor: none (no GTSF1)
[5] = auxiliary factor: 500 nM Ephydatia muelleri Gtsf1
[6] = auxiliary factor: 500 nM mouse GTSF1

UCCUGGUACAGCAACCAUAGUAUUUUCAAA
pre-steady-state target cleavage rate [1, 4]: 0.000883 ± 0.0059 | pre-steady-state target cleavage rate [2, 4]: 0.000626 ± 0.011 | pre-steady-state target cleavage rate [3, 5]: 0.000386 ± 0.0071

UCCUGGAUGUCGAACCAUUGUAAUUAGUUA
pre-steady-state target cleavage rate [1, 6]: 0.000181 ± 0.044 | pre-steady-state target cleavage rate [2, 4]: 0.000255 ± 0.015 | pre-steady-state target cleavage rate [3, 5]: 0.000332 ± 0.016

UCCUGGAUGUCGAACGAUUCUAUUUAGUUA
pre-steady-state target cleavage rate [1, 4]: 0.000365 ± 0.0084 | pre-steady-state target cleavage rate [2, 4]: 0.000537 ± 0.0096 | pre-steady-state target cleavage rate [3, 5]: 0.000146 ± 0.017

UCCUGGAUGUCGAUGCAUAGUAUAAUGUUA
pre-steady-state target cleavage rate [1, 4]: 0.0022 ± 0.0036 | pre-steady-state target cleavage rate [2, 4]: 0.000605 ± 0.013 | pre-steady-state target cleavage rate [3, 5]: 0.000274 ± 0.0091

UCCUGGUACAGCUACCAUAGUAUUUUCAAA
pre-steady-state target cleavage rate [1, 4]: 0.000871 ± 0.0081 | pre-steady-state target cleavage rate [2, 4]: 0.000363 ± 0.017 | pre-steady-state target cleavage rate [3, 5]: 0.00119 ± 0.0048

UCCUGGUACAGCUUCCAUAGUAUUAAGUUA
pre-steady-state target cleavage rate [1, 4]: 0.00141 ± 0.0062 | pre-steady-state target cleavage rate [2, 4]: 0.00132 ± 0.005 | pre-steady-state target cleavage rate [3, 5]: 0.00133 ± 0.0029

UCCUGGAUGUCGAUGCAUAGAAUUUAGUUA
pre-steady-state target cleavage rate [1, 4]: 0.00172 ± 0.0033 | pre-steady-state target cleavage rate [2, 6]: 0.000545 ± 0.014 | pre-steady-state target cleavage rate [3, 5]: 0.000324 ± 0.0087

UCCUGCUAGUGCUUGCAUAGUAUUUAGUAA
pre-steady-state target cleavage rate [1, 4]: 0.000575 ± 0.0072 | pre-steady-state target cleavage rate [2, 4]: 0.00198 ± 0.0027 | pre-steady-state target cleavage rate [3, 5]: 0.00297 ± 0.0015

UCCUGGAUGUCCUUGCAUAGUAUUAGUUA
pre-steady-state target cleavage rate [1, 4]: 0.000874 ± 0.0051 | pre-steady-state target cleavage rate [2, 4]: 0.00147 ± 0.003 | pre-steady-state target cleavage rate [3, 5]: 0.00218 ± 0.0056

UCCUGCUACAGCUUGCAUAGUUUUUACAAA
pre-steady-state target cleavage rate [1, 4]: 0.00123 ± 0.0047 | pre-steady-state target cleavage rate [2, 4]: 0.00234 ± 0.0037 | pre-steady-state target cleavage rate [3, 5]: 0.00339 ± 0.0026

UCCUGGAUGUCGUUGCAUAGUAUUAUGUUA
pre-steady-state target cleavage rate [1, 4]: 0.00224 ± 0.0047 | pre-steady-state target cleavage rate [2, 4]: 0.000634 ± 0.013 | pre-steady-state target cleavage rate [3, 5]: 0.00025 ± 0.015

UCCUGGAACAGCUUGCAUAGAUAUUAGUAA
pre-steady-state target cleavage rate [1, 4]: 0.000548 ± 0.013 | pre-steady-state target cleavage rate [2, 4]: 0.000769 ± 0.0088 | pre-steady-state target cleavage rate [3, 5]: 0.000281 ± 0.015

UCCUGCAUGAGCUUGCAUAGUAUUUACAAA
pre-steady-state target cleavage rate [1, 4]: 0.0017 ± 0.0029 | pre-steady-state target cleavage rate [2, 4]: 0.00279 ± 0.0036 | pre-steady-state target cleavage rate ([3]; auxiliary factor: none (no Gtsf1)): 0.000427 ± 0.016

UCCUCCUACUGCUUGCAUAGUAUUUUCAAA
pre-steady-state target cleavage rate [1, 4]: 0.00108 ± 0.0041 | pre-steady-state target cleavage rate [2, 4]: 0.00186 ± 0.0022 | pre-steady-state target cleavage rate [3, 5]: 0.00274 ± 0.0026

UCCUCCUAGUCCUUGCAUAGUAUUUACAAA
pre-steady-state target cleavage rate [1, 4]: 0.000703 ± 0.0063 | pre-steady-state target cleavage rate [2, 4]: 0.00122 ± 0.0034 | pre-steady-state target cleavage rate [3, 5]: 0.00284 ± 0.004

UCCUGGAUGUCCUUGCAUAGUAUAAUGUUA
pre-steady-state target cleavage rate [1, 4]: 0.00195 ± 0.0035 | pre-steady-state target cleavage rate [2, 4]: 0.00229 ± 0.0036 | pre-steady-state target cleavage rate [3, 5]: 0.00142 ± 0.0054

UCCUGGAUCAGCUUGCAUAGUAAAAAGUAA
pre-steady-state target cleavage rate [1, 4]: 0.00121 ± 0.0049 | pre-steady-state target cleavage rate [2, 4]: 0.00162 ± 0.0048 | pre-steady-state target cleavage rate [3, 5]: 0.00268 ± 0.0047

UCCUGGUACAGCUUGCAUUCUAUUUAGUUA
pre-steady-state target cleavage rate [1, 4]: 0.00368 ± 0.0052 | pre-steady-state target cleavage rate [2, 4]: 0.00293 ± 0.0032 | pre-steady-state target cleavage rate [3, 5]: 0.000324 ± 0.022

UCCUGCUAGUCCUUGCAUAGUAUUUAGAAA
pre-steady-state target cleavage rate [1, 4]: 0.00104 ± 0.005 | pre-steady-state target cleavage rate [2, 4]: 0.00155 ± 0.004 | pre-steady-state target cleavage rate [3, 5]: 0.00294 ± 0.0025

UCCUGGAUCAGCUUGCAUAGAUAUUUCAAA
pre-steady-state target cleavage rate [1, 4]: 0.000548 ± 0.0077 | pre-steady-state target cleavage rate [2, 4]: 0.000217 ± 0.012 | pre-steady-state target cleavage rate [3, 5]: 0.000335 ± 0.0091

UCCUCCUACAGCUUGCAUAGUAAUUAGAAA
pre-steady-state target cleavage rate [1, 4]: 0.00171 ± 0.004 | pre-steady-state target cleavage rate [2, 4]: 0.00188 ± 0.0035 | pre-steady-state target cleavage rate [3, 5]: 0.00474 ± 0.0026

UCCUGGUACAGCUUGCUAUCAUAAAUCAAA [g15:g24:cont:t1A]
pre-steady-state target cleavage rate [1, 4]: 0.000325 ± 0.019 | pre-steady-state target cleavage rate [2, 4]: 0.000581 ± 0.013 | pre-steady-state target cleavage rate [3, 5]: 0.000384 ± 0.0075

UCCUGGAACAGGUUGCAUAGUAUUUUCAAA
pre-steady-state target cleavage rate [1, 4]: 0.00139 ± 0.0044 | pre-steady-state target cleavage rate [2, 4]: 0.00151 ± 0.0051 | pre-steady-state target cleavage rate [3, 5]: 0.00196 ± 0.0027

Source: the supplement of paper PMC10338343
